Measured values published in publication PMC7261414, “A complex comprising C15ORF41 and Codanin-1: the products of two genes mutated in congenital dyserythropoietic anaemia type I (CDA-I)” (Biochemical Journal, 2020).

Assays:
Assay in all cases: affinity purification with mass spectrometry; GFP-Trap affinity beads, ~40 mg of lysate of HEK293 cells stably expressing the GFP-tagged proteins; SDS-PAGE, colloidal Coomassie, gel slices, LC-MS/MS
[1] = biological target: T1, GFP-C15ORF41 (wild-type C15ORF41 tagged with GFP at the N-terminus) (human) (UniProt Q9Y2V0)
T1 sequence: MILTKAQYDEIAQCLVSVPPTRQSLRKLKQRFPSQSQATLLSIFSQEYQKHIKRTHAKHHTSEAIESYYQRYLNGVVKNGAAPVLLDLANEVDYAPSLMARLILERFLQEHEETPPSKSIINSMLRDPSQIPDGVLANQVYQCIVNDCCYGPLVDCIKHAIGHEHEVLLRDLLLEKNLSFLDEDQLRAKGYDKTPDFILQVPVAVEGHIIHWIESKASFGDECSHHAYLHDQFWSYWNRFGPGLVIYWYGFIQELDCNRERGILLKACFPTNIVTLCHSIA

[2] = biological target: T2, GFP-C15ORF41 D196A (N-terminally GFP-tagged C15ORF41 with Asp196 mutated to alanine) (human) (UniProt Q9Y2V0)
T2 sequence: T1 sequence with D196A

[3] = biological target: T3, C15ORF41-GFP (wild-type C15ORF41 tagged with GFP at the C-terminus) (human) (UniProt Q9Y2V0)
T3 sequence: T1 sequence

Measured: binding

B1: Codanin-1, endogenous in HEK293 cells (protein, UniProt Q8IWY9 1-1227)
chain: MAAVLESLLREEVSVAAVVRWIARSTQGSEDNAGEAAALSSLRALRKEFVPFLLNFLREQSSRVLPQGPPTPAKTPGASAALPGRPGGPPRGSRGARSQLFPPTEAQSTAAEAPLARRGGRRRGPGPARERGGRGLEEGVSGESLPGAGGRRLRGSGSPSRPSLTLSDPPNLSNLEEFPPVGSVPPGPTGTKPSRRINPTPVSEERSLSKPKTCFTSPPISCVPSSQPSALDTSPWGLGLPPGCRSLQEEREMLRKERSKQLQQSPTPTCPTPELGSPLPSRTGSLTDEPADPARVSSRQRLELVALVYSSCIAENLVPNLFLELFFVFQLLTARRMVTAKDSDPELSPAVLDSLESPLFQSIHDCVFFAVQVLECHFQVLSNLDKGTLKLLAENERLLCFSPALQGRLRAAYEGSVAKVSLVMPPSTQAVSFQPETDNRANFSSDRAFHTFKKQRDVFYEVLREWEDHHEEPGWDFEKGLGSRIRAMMGQLSAACSHSHFVRLFQKQLLQMCQSPGGAGGTVLGEAPDVLSMLGADKLGRLWRLQERLMAPQSSGGPCPPPTFPGCQGFFRDFILSASSFQFNQHLMDSLSLKIQELNGLALPQHEPNDEDGESDVDWQGERKQFAVVLLSLRLLAKFLGFVAFLPYRGPEPPPTGELQDSILALRSQVPPVLDVRTLLQRGLQARRAVLTVPWLVEFLSFADHVVPLLEYYRDIFTLLLRLHRSLVLSQESEGKMCFLNKLLLLAVLGWLFQIPTVPEDLFFLEEGPSYAFEVDTVAPEHGLDNAPVVDQQLLYTCCPYIGELRKLLASWVSGSSGRSGGFMRKITPTTTTSLGAQPSQTSQGLQAQLAQAFFHNQPPSLRRTVEFVAERIGSNCVKHIKATLVADLVRQAESLLQEQLVTQGEEGGDPAQLLEILCSQLCPHGAQALALGREFCQRKSPGAVRALLPEETPAAVLSSAENIAVGLATEKACAWLSANITALIRREVKAAVSRTLRAQGPEPAARGERRGCSRACEHHAPLPSHLISEIKDVLSLAVGPRDPDEGVSPEHLEQLLGQLGQTLRCRQFLCPPAEQHLAKCSVELASLLVADQIPILGPPAQYRLERGQARRLLHMLLSLWKEDFQGPVPLQLLLSPRNVGLLADTRPREWDLLLFLLRELVEKGLMGRMEIEACLGSLHQAQWPGDFAEELATLSNLFLAEPHLPEPQLRACELVQPNRGTVLAQS
binds: all assays above

Changes are numbered by the printed parent chain. These are yes or no findings as the source states them, for the method shown. Binding seen in cells or lysates may run through a third protein. Here binding means that the protein was enriched with, or labelled near, the bait; the list need not be complete. Where a sequence is shown, tags or fusion partners need not be part of it.
